Assay results from US20260234121A1, “DERIVATIVES, IMMUNOGENS, AND ANTIBODIES AND USE OF THE SAME IN DETECTION OF ECSTASY-CLASS COMPOUNDS” (Siemens Healthcare Diagnostics Inc., priority 2023, published 2026).
Numbering of substitutions follows the chain as printed. Some entries share one result that the patent states for a list of compounds.

B1: 178K 1B2 mAb: mouse monoclonal antibody raised against E1-KLH (56); IgG2b, κ; heavy chain SEQ ID NO 84, light chain SEQ ID NO 108 (antibody)
heavy: MNFGLSLIFLALILKGVQCEVQLVESGGDLVKPGGSLKLSCAASGFTFTNYVMSWVRQTPDKRLEWVATINSGGRYAYYPDSVKGRFTISRDNAKNTLYLQMSSLKSEDTAMYYCAGGNNLDYWGQGTTLTVSSAKTTPPSVYPLAPGCGDTTGSSVTLGCLVKGYFPESVTVTWNSGSLSSSVHTFPALLQSGLYTMSSSVTVPSSTWLSQTVTCSVAHPASSTTVDKKLEPSGPISTIKPCPPCKECHKCPAPNLEGGPSVFIFPPNIKDVLMISLTPKVTCVVVDVSEDDPDVQISWFVNNVEVHTAQTQTHREDYNSTIRVVSALPIQHQDWMSGKEFKCKVNNKDLPSPIERTISKIKGLVRAPQVYILPPPAEQLSRKDVSLTCLVVGFNPGDISVEWTSNGHTEENYKDTAPILDSDGSYFIYSKLNMKTSKWEKTDSFSCNVRHEGLKNNYLKKTISRSPGK
light: MRFSAQLLGLLVLWIPGSTADIVMTQAAFSNPVTLGTSASISCRSSKSLLQRNGITYLYWYLQKPGQSPQLLIYRLSNLASGVPDRFSSSGSGTDFTLRISRVEAEDVGVYYCGQDLELPYTFGGGTKLEIKRADAAPTVSIFPPSSEQLTSGGASVVCFLNNFYPKDINVKWKIDGSERQNGVLNSWTDQDSKDSTYSMSSTLTLTKDEYERHNSYTCEATHKTSTSPIVKSFNRNEC
B2: 178K 2B7 mAb: mouse monoclonal antibody raised against E1-KLH (56); IgG2b, κ; heavy chain SEQ ID NO 87, light chain SEQ ID NO 111 (antibody)
heavy: B1 heavy with K32R, A43S, T47I, T49S, Y76F, A77T, Y99F, S103N, S107P, M112I
light: B1 light with A28E, N53S, L76M, L117M
B3: 178H 4B1 mAb: mouse monoclonal antibody raised against E1-KLH (56); IgG2b, κ; heavy chain SEQ ID NO 83, light chain SEQ ID NO 107 (antibody)
heavy: MNFGLSLIFLALILKGLQCEVQLVESGGDLVKPGGSLKLSCAASGFTFSRNVMSWVRQTPDKRLEWVATISSGGVHTYYLDSVKGRFTIFRDNAKNTLYLQMNSLQSEDTAMYYCAAGNALDYWGQGTSVTVSSAKTTPPSVYPLAPGCGDTTGSSVTLGCLVKGYFPESVTVTWNSGSLSSSVHTFPALLQSGLYTMSSSVTVPSSTWPSQTVTCSVAHPASSTTVDKKLEPSGPISTINPCPPCKECHKCPAPNLEGGPSVFIFPPNIKDVLMISLTPKVTCVVVDVSEDDPDVRISWFVNNVEVHTAQTQTHREDYNSTIRVVSALPIQHQDWMSGKEFKCKVNNKDLPSPIERTISKIKGLVRAPQVYILPPPAEQLSRKDVSLTCLVVGFNPGDISVEWTSNGHTEENYKDTAPVLDSDGSYFIYSKLDIKTSKWEKTDSFSCNVRHEGLKNYYLKKTISRSPGK
light: B1 light with V23M, A39G, Q51H, R52S, R75Q, L76M, T122S, G125S

Assay: Competitive ELISA of purified antibodies on E1-OVA (55), MDMA and MDA reactivity
Assay type: binding
Settings: 10,000-0.1 ng/mL range of drug concentration
Method: Competitive ELISA was used to assess the presence of anti-Ecstasy-class antibodies in animal sera, hybridoma supernatants, and monoclonal antibody (mAb) samples as well as to estimate the level of antibody cross reactivity to amphetamine (Amph) and methamphetamine (mAmph). Antisera and antibody samples were used at the dilution giving a response of about OD=1 at 650 nm (OD650 nm) in an indirect ELISA. Hybridoma supernatants were diluted 1:2 in PBS. (±)-MDMA, (±)-MDA, (±)-amphetamine, and (±)-methamphetamine were used as inhibitors (Cerilliant Corporation, Round Rock, TX). Microtiter ELISA plates were coated and blocked as described above for indirect ELISA. The inhibitors were serially diluted in PBS. 25 μL of the diluted inhibitor was mixed with 25 μL of fixed appropriate antiserum or antibody sample dilution. The mixture was incubated over the E1-OVA (55) solid phase for 1 h. The plates were washed as described above and the bound antibodies were detected with anti-rabbit or anti-mouse IgG HRP-conjugates and TMB substrate as described above.
The anti-ecstasy class mAbs were purified from clarified and filtered hybridoma culture supernatants on a recombinant Protein A Sepharose Fast Flow (GE Life Sciences, Boston USA), dialyzed against PBS containing 0.02% sodium azide and stored at 4° C. The purified mAbs were tested for MDA and MDMA reactivity as well as amphetamine (Amph) and methamphetamine (mAmph) cross reactivity in a competitive assay.

Row | Molecule | difference between MDMA and MDA binding [%]
1 | B1 | ≤ 20
2 | B2 | ≤ 20
3 | B3 | ≤ 20
